Measured values from the supplement of paper PMC7877785.
± gives the uncertainty stated by the source. Many entries were measured with a wide error.

Experiment: self-splicing fitness, log relative to wild type (ln ratio); higher = more splicing; Tetrahymena group I intron in knt gene, E. coli kanamycin selection, DiMSum; sequences stand for … in CUCUCU…GGAGGGAAAAGUUAUCAGGCAUGCACCUGGUAGCUAGUCUUUAAACCAAUAGAUUGCAUCGGUUUAAAAGGCAAGACCGUCAAAUUGCGGGAAAGGGGUCAACAGCCGUUCAGUACCAAGUCUCAGGGGAAACUUUGAGAUGGCCUUGCAAAGGGUAUGGUAAUAAGCUGACGGACAUGGUCCUAACCACGCAGCCAAGUCCUAAGUCAACAGAUCUUCUGUUGAUAUGGAUGCAGUUCACAGACUAAAUGUCGGUCGGGGAAGAUGUAUUCUUCUCAUAAGAUAUAGUCGGACCUCUCCUUAAUGGGAGCUAGCGGAUGAAGUGAUGCAACACUGGAGCCGCUGGGAACUAAUUUGUAUGCGAAAGUAUAUUGAUUAGUUUUGGAGUACUCGUGGUCG
Outline: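 Six replicate transformations of E. coli BL21(DE3) with a pET-22b(+) library were grown overnight at 37°C or 30°C. The library randomised all eight P1ex-region intron nucleotides, the intron lying in the knt kanamycin-resistance gene, and plates were LB agar with or without 25 μg/mL kanamycin plus 100 μg/mL carbenicillin, 50 μM IPTG and 0.2% rhamnose. Pooled colonies were amplicon-sequenced on an Illumina HiSeq 2500, and fitness is the DiMSum error-weighted combination of wild-type-normalised replicate fold changes, kanamycin versus none.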

Sequence | self-splicing fitness (ln) (30 °C) | self-splicing fitness (ln) (37 °C)
GUCCAGCAAUAUUACGGCCC | -3.44 ± 0.62 | -0.415 ± 0.87
ACGGAGCAAUAUUACGGACC | -4.4 ± 1 | 
UUGAAGCAAUAUUACGUCCC | -2.36 ± 1.2 | -1.51 ± 0.84
AGGGAGCAAUAUUACGGUAG |  | -2.79 ± 0.54
GCAAAGCAAUAUUACGCUGC |  | -3.6 ± 1
ACAUAGCAAUAUUACGCCUC | -3.24 ± 0.54 | 
GCGGAGCAAUAUUACGCAAA | -2.32 ± 0.58 | -1.93 ± 0.68
UGCAAGCAAUAUUACGGCAC | -3.59 ± 0.4 | -3.28 ± 0.33
ACAGAGCAAUAUUACGCGAC | -4.22 ± 0.72 | -2.93 ± 0.74
UCUUAGCAAUAUUACGGUCG | -0.895 ± 0.16 | -1.37 ± 0.33
CCCUAGCAAUAUUACGCUUG | -3.94 ± 0.42 | -2.18 ± 0.28
CUUAAGCAAUAUUACGUAGU | -3.14 ± 0.13 | -2.3 ± 0.18
GGUCAGCAAUAUUACGUGUU | -0.208 ± 0.047 | 0.537 ± 0.063
GCAAAGCAAUAUUACGCCGC | -3.9 ± 0.74 | -2.54 ± 0.62
UUCUAGCAAUAUUACGGCAG | 0.185 ± 0.42 | -0.821 ± 0.39
GCAGAGCAAUAUUACGCUAA | -2.73 ± 0.55 | 
CGGUAGCAAUAUUACGCAUU | -4.45 ± 0.59 | 
CUAAAGCAAUAUUACGCUAA |  | -3.82 ± 1
GUAGAGCAAUAUUACGGUUC | -1.84 ± 0.11 | -0.825 ± 0.14
AGGGAGCAAUAUUACGGAAC | -3.01 ± 0.38 | -2.68 ± 0.41

Sequence | self-splicing fitness (ln) (30 °C) | self-splicing fitness (ln) (37 °C)
CUGUAGCAAUAUUACGCCGA | -4.16 ± 1 | 
GUAAAGCAAUAUUACGAUCC | -0.0218 ± 0.18 | 0.363 ± 0.29
CUCUAGCAAUAUUACGACAA | -3.54 ± 0.74 | -2.35 ± 0.28
GUUUAGCAAUAUUACGCUUC | -2 ± 0.87 | 
AGAGAGCAAUAUUACGCCAC | -1.94 ± 0.82 | 
GGAUAGCAAUAUUACGCUGC |  | -1.88 ± 1.2
UGGUAGCAAUAUUACGGCAC | -2.22 ± 0.7 | 
AUCCAGCAAUAUUACGGAAC | -2.68 ± 0.18 | -1.06 ± 0.15
CUGGAGCAAUAUUACGAGAC | -3.88 ± 0.54 | 
UCAGAGCAAUAUUACGUACU | -3.35 ± 0.34 | -2.24 ± 0.3
CGGGAGCAAUAUUACGCUCG | -2.5 ± 0.73 | 
UUAGAGCAAUAUUACGCCCC | -2.02 ± 1.2 | -0.869 ± 0.78
CGGGAGCAAUAUUACGAUCG | -3.42 ± 0.6 | -3.62 ± 0.73
CACCAGCAAUAUUACGUAUU | -3.78 ± 0.15 | -2.7 ± 0.16
UCGGAGCAAUAUUACGGUCA |  | -2.56 ± 0.76
CCUCAGCAAUAUUACGCUCC |  | -2.04 ± 0.79
CUCCAGCAAUAUUACGAAUC | -4.52 ± 0.59 | -2.09 ± 0.55
AGAGAGCAAUAUUACGGGAC | -2.5 ± 0.57 | 
GCAUAGCAAUAUUACGAAAA | -0.675 ± 0.63 | 
UUCUAGCAAUAUUACGAGGG | -4.59 ± 0.51 | 

Whole records from above.
UCAGAGCAAUAUUACGUACU as listed: self-splicing fitness (ln) (30 °C): -3.35 ± 0.34; self-splicing fitness (ln) (37 °C): -2.24 ± 0.3
UGCAAGCAAUAUUACGGCAC as listed: self-splicing fitness (ln) (30 °C): -3.59 ± 0.4; self-splicing fitness (ln) (37 °C): -3.28 ± 0.33
UUAGAGCAAUAUUACGCCCC as listed: self-splicing fitness (ln) (30 °C): -2.02 ± 1.2; self-splicing fitness (ln) (37 °C): -0.869 ± 0.78
CCCUAGCAAUAUUACGCUUG as listed: self-splicing fitness (ln) (30 °C): -3.94 ± 0.42; self-splicing fitness (ln) (37 °C): -2.18 ± 0.28

More results:

Sequence | self-splicing fitness (ln) (30 °C) | self-splicing fitness (ln) (37 °C)
GCAGAGCAAUAUUACGCCCC |  | -0.0848 ± 1.2
CUGAAGCAAUAUUACGAAAU | -3.78 ± 0.27 | -2.38 ± 0.25
GGGCAGCAAUAUUACGAAUU | -0.318 ± 0.12 | -0.166 ± 0.17
ACAGAGCAAUAUUACGCUAG | -3.28 ± 0.19 | -2.61 ± 0.18
GCACAGCAAUAUUACGUUCU | -0.579 ± 0.054 | -0.524 ± 0.068
AGAGAGCAAUAUUACGAGAA | -1.55 ± 1.2 | -1.54 ± 0.71
GCGGAGCAAUAUUACGCUGG | -3.6 ± 1 | 
CCAUAGCAAUAUUACGCUAU | -4.67 ± 0.72 | 
UGGGAGCAAUAUUACGCUUU | -4.91 ± 1 | 
GCGUAGCAAUAUUACGAUUC | -0.141 ± 0.098 | -0.0224 ± 0.11
CAUAAGCAAUAUUACGUACU | -4.6 ± 0.59 | 
CCUGAGCAAUAUUACGCGGG | -3.41 ± 0.26 | -2.22 ± 0.34
CCUGAGCAAUAUUACGUCCA |  | -2.83 ± 0.54
GUUAAGCAAUAUUACGCUUC | -1.78 ± 0.84 | 
GUGUAGCAAUAUUACGGUCA | -1.36 ± 0.14 | -2.06 ± 0.12
CUAGAGCAAUAUUACGUAGC | -3.23 ± 0.53 | 
AUUGAGCAAUAUUACGGAGC | -4.16 ± 1 | -2.68 ± 0.54
ACCGAGCAAUAUUACGCCUA | -3.64 ± 0.54 | 
UUCGAGCAAUAUUACGCGCG | -2.73 ± 0.62 | -2.48 ± 0.63
